In EP2420510B1, “Nicotinoyl peptide derivatives and cosmetic composition comprising the same” (BIO-FD&C Co., Ltd., priority 2010, dated 2013):
Not every detail of the peptide structures is certain; ends, links or a residue may be inferred. Residues, ends and D or L forms follow the SMILES beside them.

Legend:
[1] = test system: Human fibroblasts (primary cell line, CCD-986sk); assay: Collagen generation activity test (procollagen type I C-peptide (PIP) ELISA); assay type: cell-based; settings: 100 µM, 24 hours, CCD-986sk fibroblasts, PIP ELISA absorbance at 450 nm relative to purified water control (=100)
[2] = test system: iNOS; assay: Anti-inflammatory activity test (iNOS activity inhibition test; nitric oxide by Griess reagent after LPS); assay type: cell-based, murine; settings: amount of nitric oxide produced relative to group treated with LPS only (=100); 100 µM pre-treatment 18 hours, then LPS 24 hours, Raw264.7 cells

Row | SMILES | Collagen Generation Activity (%) [1] | Yields (%) [2]
1 | O=C(O)CNC(=O)[C@H](CS)NC(=O)CC[C@H](NC(=O)c1cccnc1)C(=O)O [Comparative Example 1, nicotinoyl-tripeptide (γ-glutamyl-cysteinyl-glycine (SEO ID No:13))] | 99.5% | 94.5%
2 | C[C@@H](O)[C@H](NC(=O)[C@H](CCCCN)NC(=O)c1cccnc1)C(=O)N[C@H](C(=O)N[C@@H](CCCCN)C(=O)N[C@@H](CO)C(=O)O)[C@@H](C)O [Comparative Example 2, nicotinoyl-pentapeptide (lysyl-threonyl-threonyl-lysyl-serine (SEQ ID No:12))] (HELM PEPTIDE1{[O=C(c1cccnc1)[*:2]].K.T.T.K.S}$$$$V2.0) | 100.5% | 95.1%
